Results reported in patent publication US8900444B2, “Switchable hydrophilicity solvents and methods of use thereof” (Queen's University at Kingston, priority 2009, dated 2014).

Test: Soybean oil extraction from soy bean flakes (Example 2B)

For `CN(C)C1CCCCC1` [N,N-dimethylcyclohexylamine], the “time to reach similar amount of oil extracted as at 60 °C” value (25 °C) was “at least 30 min”, the “time to reach maximum amount of oil extracted” value (60 °C) was no more than 15 min and the “SHS content of decanted soy oil” value (larger scale, 10 wt % piperazine solution, CO2 about 45 min, 24 h settling, 1H NMR) was 11%.
